Reference: article PMC8229129, “Local Colonic Administration of a Serine Protease Inhibitor Improves Post-Inflammatory Visceral Hypersensitivity in Rats” (Pharmaceutics, 2021)

System: colonic compliance
Test: Colonic compliance (pressure-volume curves)
Type: in vivo, Sprague–Dawley rats
Conditions: rats; for Effect on colonic compliance (intracolonic pressure at graded volumes of water): compared to vehicle, compliance increased

In the case of `CC(=O)Nc1ccc(OP(=O)(Oc2ccc(NC(C)=O)cc2)C(Cc2ccc(N=C(N)N)cc2)NC(=O)OCc2ccccc2)cc1.Cl` (stereo not drawn) [UAMC-00050], the “Effect on colonic compliance” value (0.1 mg/kg–1.0 mg/kg intracolonic) is reported as “did not alter colonic compliance”, the “Effect on colonic compliance (intracolonic pressure at graded volumes of water)” value (2.5 mg/kg intracolonic) is reported as “lower intracolonic pressures” and the “Effect on colonic compliance (intracolonic pressure at graded volumes of water)” value (5.0 mg/kg intracolonic) is reported as “lower intracolonic pressures”.
